“And” between values parts separate entries of the source, which are not always exact repeats. Equal values may be shown once. The list shows a part of the results. The main result of the screen is listed elsewhere. These columns were measured beside it and carry no call. Most of these compounds were active or inconclusive in the main read-out, so they are no random draw. Potencies come from curve fits of mixed quality, noted in brackets.
Assay: qHTS Assay to Find Inhibitors of Chronic Active B-Cell Receptor Signaling
Settings: ABC-DLBCL IkBa-CBG/CBR reporter, luminescence ratio (green luciferase fused to IkBa over red control in TMD8 lymphoma cells), 4 h
In short: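 Cell line TMD8 (human ABC DLBCL), stably expressing tet-inducible CBG68-IkBa fusion and CBR; IMDM/0.5% FBS; cpd up to 46 uM; dox induction, 4 h, 37C/5% CO2; dual luminescence; green/red ratio; MG132 control.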

[1] = measured here: CBR red luminescence, cell number
[2] = measured here: IkBa-CBG green luminescence

| Structure (SMILES) | AC50 [1] | AC50 [2] |
| --- | --- | --- |
| S=C(Nc1ccccn1)c1ccccn1 | 35.5 µM [falling, single point] and 2.59 µM [rising, single point] | 6.31 µM [falling, full curve] and 2.91 µM [falling, full curve] |
| CCN1CCN(c2ccc(NC(=O)c3ccc4c(c3)[nH]c(=O)n4Cc3ccc(F)cc3)cc2)CC1 | 23.1 µM [falling, single point] | – |
| CCCNCC1C(Oc2ccc(Cl)cc2Cl)C(=O)N1c1cccc(C)c1C (stereo not given) | 35.5 µM [falling, single point] | – |
| CSc1nc2[nH]c3c(c2c2nnnn12)CCCC3 | 3.98 µM [rising, partial curve] | – |
| CCCn1c(SCC(=O)N2CCN(C(=O)c3ccco3)CC2)nc2ccccc2c1=O | 35.5 µM [falling, single point] | – |
| C=CCn1c(O)c(N=NC(=S)Nc2ccc(OC)cc2)c2ccccc21 | 6.51 µM [rising, single point] | – |
| Cc1ccc(NC(=O)CNC(=O)c2cccs2)c(O)c1 | 16.4 µM [falling, partial curve] | – |
| N#Cc1ccc(N2CCN(c3ccc(F)cc3)CC2)cc1 | 0.651 µM [rising, full curve] | – |
| Cc1cccc(NC(=O)c2ccc(C(=O)c3ccccc3)cc2)n1 | 16.4 µM [falling, partial curve] | – |
| CC(=O)Cn1ncc(Br)c(Br)c1=O | 7.08 µM [falling, partial curve, poor fit] | 5.62 µM [rising, full curve] |
| Cc1ccccc1-c1nc(Cc2ccc(Cl)cc2)no1 | 20.6 µM [rising, single point] | – |
| CN1/C(=C\C(=O)c2cccc([N+](=O)[O-])c2)Sc2ccccc21 | 3.16 µM [rising, partial curve, poor fit] | – |
| CCN1CCN(C(=O)c2cc3ccc(OC)cc3[nH]2)CC1 | 6.31 µM [rising, partial curve, poor fit] | – |
| COc1cc(C(=O)N(Cc2ccc(N(C)C)cc2)C2CCS(=O)(=O)C2)cc(OC)c1OC (stereo not given) | 12.6 µM [rising, single point] | – |
| COc1cc(C(=O)OCC(=O)c2c[nH]c3ccccc23)ccc1OCC(=O)N1CCOCC1 | 14.1 µM [falling, partial curve, poor fit] | – |
| COc1ccc(/C(N)=N/OC(=O)c2ccc(Br)o2)cc1 | 20 µM [rising, partial curve, poor fit] | – |
| COc1cc(/C=C/c2ccc3cccc(O)c3n2)cc(OC)c1OC | 7.08 µM [rising, partial curve] | 11.2 µM [falling, partial curve] |
| Nc1nnc(CC(=O)N/N=C/c2ccc(-c3ccccc3Cl)o2)s1 | 3.26 µM [rising, partial curve, poor fit] | – |
| COc1cccc(C(=O)Nc2cccc(-c3nnc(-c4ccco4)o3)c2)c1 | 8.2 µM [falling, partial curve] | – |
| CCn1c(SCC(=O)Nc2oc(C)c3c(C)n[nH]c(=O)c23)nc2sc(C)c(C)c2c1=O | 6.51 µM [rising, single point] | – |

| Structure (SMILES) | AC50 [1] | AC50 [2] |
| --- | --- | --- |
| CCC(C)N(C(=O)COC(=O)c1cn(CC)c2nc(C)ccc2c1=O)C1CCS(=O)(=O)C1 (stereo not given) | 6.31 µM [falling, single point] | – |
| CN(C)CCSc1nnc2[nH]c3ccccc3c2n1 | 8.2 µM [falling, partial curve] | – |
| CC(C)OCCCNC(=O)COc1ccc2oc3c(c2c1)CCCC3 | 5.62 µM [rising, single point] | – |
| COc1cccc(NC(=S)N(CCc2c(C)[nH]c3ccccc23)Cc2ccco2)c1 | 0.651 µM [rising, full curve, poor fit] | – |
| CCOC(=O)c1c(C)nc2c(c1C)c(=O)oc1ccccc12 | 29.1 µM [rising, single point] | – |
| CC(=O)c1ccc(OCc2cc(C(=O)N(C)Cc3ncc(C)[nH]3)no2)cc1 | 0.0891 µM [rising, full curve, poor fit] | – |
| Cc1cccc(N/C(N)=N/c2nc(C)c(Cc3ccccc3)c(=O)[nH]2)c1 | 22.4 µM [rising, single point] | – |
| CN(C)CCCN=c1cc(-c2ccccc2)oc2ccc(Cl)cc12 | 0.794 µM [rising, full curve, poor fit] | – |
| O=C(CCCCCn1c(=S)[nH]c2ccccc2c1=O)N1CCOCC1 | 35.5 µM [falling, partial curve, poor fit] | – |
| COc1ccc(/C=N/Nc2cc(C)nc(-n3nc(C)cc3C)n2)cc1 | 0.259 µM [falling, full curve, poor fit] | – |
| Cc1cccc(OCC(=O)NCCCNC(=O)c2ccco2)c1 | 14.1 µM [falling, partial curve, poor fit] | – |
| CC1=NN(C(=O)c2ccccc2Cl)C(O)(c2ccccc2)C1 (stereo not given) | 2.24 µM [falling, full curve] | – |
| CCOc1cc(/C=N/NC(=O)c2ccccc2OCc2ccc(F)cc2)ccc1O | 7.31 µM [falling, partial curve, poor fit] | – |
| c1ccc(-c2noc(-c3ccc4c(c3)OCO4)n2)cc1 | 2.51 µM [falling, full curve, poor fit] | – |
| CC1(C(=O)OCC(=O)Nc2cccc(S(=O)(=O)NC3=NCCCCC3)c2)CC1(Cl)Cl (stereo not given) | 14.1 µM [falling, partial curve, poor fit] | – |
| COCCn1c(=S)[nH]c2sc3c(c2c1=O)CCCC3 | 35.5 µM [falling, single point] | – |
| O=C(Nc1cc(=O)[nH]c(=O)[nH]1)c1cccc(Br)c1 | 12.6 µM [rising, partial curve] | 22.4 µM [falling, single point] |
| C=CCc1cc(C=O)cc(OC)c1OCc1ccc(Cl)cc1 | 14.1 µM [rising, partial curve, poor fit] | – |
| O=S(=O)(NCCCCNS(=O)(=O)c1c(F)cccc1F)c1ccc2c(c1)OCCO2 | 23.1 µM [rising, single point] | – |
| C=CC[C@H](CC(=O)N(CCO)Cc1ccccc1)C(=O)N[C@H](COC(=O)[C@@H](CC=C)Cc1ccc(F)cc1)C(C)(C)C | 20.6 µM [falling, partial curve, poor fit] | – |

Sorted by SMILES length (ascending): 16 of the compounds above.

| Structure (SMILES) | AC50 [1] | AC50 [2] |
| --- | --- | --- |
| CC(=O)Cn1ncc(Br)c(Br)c1=O | 7.08 µM [falling, partial curve, poor fit] | 5.62 µM [rising, full curve] |
| COCCn1c(=S)[nH]c2sc3c(c2c1=O)CCCC3 | 35.5 µM [falling, single point] | – |
| C=CCc1cc(C=O)cc(OC)c1OCc1ccc(Cl)cc1 | 14.1 µM [rising, partial curve, poor fit] | – |
| c1ccc(-c2noc(-c3ccc4c(c3)OCO4)n2)cc1 | 2.51 µM [falling, full curve, poor fit] | – |
| CCN1CCN(C(=O)c2cc3ccc(OC)cc3[nH]2)CC1 | 6.31 µM [rising, partial curve, poor fit] | – |
| CC(C)OCCCNC(=O)COc1ccc2oc3c(c2c1)CCCC3 | 5.62 µM [rising, single point] | – |
| CC1=NN(C(=O)c2ccccc2Cl)C(O)(c2ccccc2)C1 (stereo not given) | 2.24 µM [falling, full curve] | – |
| O=C(Nc1cc(=O)[nH]c(=O)[nH]1)c1cccc(Br)c1 | 12.6 µM [rising, partial curve] | 22.4 µM [falling, single point] |
| O=C(CCCCCn1c(=S)[nH]c2ccccc2c1=O)N1CCOCC1 | 35.5 µM [falling, partial curve, poor fit] | – |
| Nc1nnc(CC(=O)N/N=C/c2ccc(-c3ccccc3Cl)o2)s1 | 3.26 µM [rising, partial curve, poor fit] | – |
| CN1/C(=C\C(=O)c2cccc([N+](=O)[O-])c2)Sc2ccccc21 | 3.16 µM [rising, partial curve, poor fit] | – |
| Cc1cccc(N/C(N)=N/c2nc(C)c(Cc3ccccc3)c(=O)[nH]2)c1 | 22.4 µM [rising, single point] | – |
| COc1cccc(NC(=S)N(CCc2c(C)[nH]c3ccccc23)Cc2ccco2)c1 | 0.651 µM [rising, full curve, poor fit] | – |
| O=S(=O)(NCCCCNS(=O)(=O)c1c(F)cccc1F)c1ccc2c(c1)OCCO2 | 23.1 µM [rising, single point] | – |
| COc1cc(C(=O)OCC(=O)c2c[nH]c3ccccc23)ccc1OCC(=O)N1CCOCC1 | 14.1 µM [falling, partial curve, poor fit] | – |
| COc1cc(C(=O)N(Cc2ccc(N(C)C)cc2)C2CCS(=O)(=O)C2)cc(OC)c1OC (stereo not given) | 12.6 µM [rising, single point] | – |

(continued)

| Structure (SMILES) | AC50 [1] | AC50 [2] |
| --- | --- | --- |
| NC(=O)[C@@H]1[C@@H]2C(=O)N(c3ccc(F)cc3)C(=O)[C@@H]2[C@H]2C=Cc3ccccc3N21 | 11.2 µM [falling, single point] | – |
| Cc1ccc2nc(/C(C#N)=C\c3ccc(OC(=O)c4cccs4)cc3)[nH]c2c1 | 8.91 µM [falling, partial curve, poor fit] | – |
| CCO/C=C/C(O)(CNC(=O)c1ccc(C(C)(C)C)cc1)C(F)(F)F (stereo not given) | 16.4 µM [rising, partial curve, poor fit] | – |
| COc1ccc(CCN(C)Cc2c(O)ccc3cc(Br)ccc23)cc1OC | 3.98 µM [falling, partial curve, poor fit] | – |
| O=C(COc1ccc2c(c1)OCO2)Nc1nccs1 | 7.08 µM [falling, partial curve, poor fit] | – |
| C/C(=N\Nc1ccccc1)c1cc2ccccc2oc1=O | 10 µM [rising, partial curve, poor fit] | – |
| COc1cc(/C=C/c2ccc3cccc(O)c3n2)c(Br)cc1O | 3.16 µM [rising, partial curve, poor fit] | 12.6 µM [falling, partial curve] |
| COc1ccc(-c2noc(CN(C(=O)c3ccc(OC(C)=O)cc3)C(C)C)n2)cc1OC | 0.0731 µM [rising, partial curve, poor fit] | – |
| Cc1ccccc1/C=C/c1nc2ccccc2c(=O)[nH]1 | 0.282 µM [falling, full curve] | – |
| C[C@@H]1CN([C@H](C)CO)C(=O)Cc2cc(NC(=O)CCC(F)(F)F)ccc2O[C@@H]1CN(C)C(=O)Nc1ccccc1 | 18.4 µM [rising, single point] | – |
| CCCCN(C)C(=O)c1cccc(OC2CCN(CC(C)(C)C)CC2)c1 | 0.708 µM [falling, full curve, poor fit] | – |
| O=S(=O)(/N=C(/Nc1cc(N2CCOCC2)ncn1)c1ccc(F)cc1)c1ccccc1 | 1.84 µM [rising, partial curve, poor fit] | – |
| O=C(CC12CC3CC(CC(C3)C1)C2)Nc1ccccc1N1CCOCC1 | 1.58 µM [rising, partial curve] | – |
| COc1cccc(/C=N/NC(=O)c2ccccc2NC(=O)c2ccco2)c1OC | 15.8 µM [falling, single point] | – |
| C[C@H](CO)N1C[C@H](C)[C@@H](CN(C)Cc2ccc(-c3ccccc3)cc2)Oc2c(NC(=O)Cc3ccccc3)cccc2C1=O | 2.31 µM [falling, full curve] | – |
| Cc1ccc(NS(=O)(=O)c2cc([N+](=O)[O-])ccc2NNC(=S)Nc2cc(C)ccc2C)c(C)c1 | 20.6 µM [falling, single point] | 20.6 µM [rising, single point] |
| CCOC(=O)C1(CCOc2ccccc2)CCN(Cc2cccc3c2OCO3)CC1 | 35.5 µM [falling, single point] | – |
| O=C1CC(c2ccco2)Cc2nc(Nc3nc(-c4ccccc4)c4ccccc4n3)ncc21 (stereo not given) | 10 µM [falling, partial curve, poor fit] | – |
| CC(C)c1cc(C(=O)N/N=C/C=C/c2ccccc2)n[nH]1 | 25.9 µM [rising, single point] | – |
